# Results deposited as PubChem BioAssay AID743121 (NCATS, 2013).
# Assay: 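Knock-downs that sensitise breast cancer cells to camptothecin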 (primary screen)
# Cells: MDA-MB-231 cells, a human breast cancer line
# Knock-down reagent: single siRNA against human genes, 20 nM siRNA (0.8 pmol per well)
# Duration: 120 h (drug added 48 h after transfection, read 72 h later)
# Challenge: camptothecin 20 nM (about EC30) for 72 h; vehicle 0.1% DMSO in parallel plates
# Measured: 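Cell viability by ATP luminescence (CellTiter-Glo) as % of non-targeting siRNA wells, and the log2 ratio of viability without drug over viability with camptothecin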
# Direction: log2 vehicle/camptothecin viability: higher = stronger sensitisation to camptothecin; viability with camptothecin and viability without drug: higher = more viable cells
# Call rule: 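Each gene scored by redundant siRNA activity (RSA) over its individual siRNA ratios; a gene is called active at p < 0.001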
# This is an unselected part of about 26,000 reagents. 167 of all reagents (0.63%) count as active. 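Calls are per gene from RSA p-values that are not deposited; an individual active-marked siRNA can sensitise only weakly.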 The numbers tell different reagents against one gene apart.
gene,reagent,log2 vehicle/camptothecin viability,viability with camptothecin (% of control),viability without drug (% of control),outcome
ETV6 (ETS variant transcription factor 6),1,0.0893,75.1,79.8,inactive
ETV6 (ETS variant transcription factor 6),2,-0.125,117,107,inactive
ETV6 (ETS variant transcription factor 6),3,0.0304,87.9,89.8,inactive
ETV6 (ETS variant transcription factor 6),4,0.0231,75.6,76.9,inactive
NHERF4 (NHERF family PDZ scaffold protein 4),1,-0.0773,112,106,inactive
NHERF4 (NHERF family PDZ scaffold protein 4),2,0.0512,55.9,57.9,inactive
NHERF4 (NHERF family PDZ scaffold protein 4),3,0.237,17.6,20.8,inactive
TPSG1 (tryptase gamma 1),1,0.325,52.3,65.5,inactive
TPSG1 (tryptase gamma 1),2,-0.551,58.2,39.7,inactive
TPSG1 (tryptase gamma 1),3,-0.175,26.4,23.3,inactive
TPSG1 (tryptase gamma 1),4,-0.404,75.7,57.2,inactive
MXD1 (MAX dimerization protein 1),1,0.247,28.2,33.5,inactive
MXD1 (MAX dimerization protein 1),2,0.21,25.3,29.2,inactive
MXD1 (MAX dimerization protein 1),3,-0.57,96.7,65.1,inactive
MXD1 (MAX dimerization protein 1),4,0.276,85.6,104,inactive
GUCA1A (guanylate cyclase activator 1A),1,-0.291,50,40.9,inactive
GUCA1A (guanylate cyclase activator 1A),2,-0.104,87.9,81.8,inactive
GUCA1A (guanylate cyclase activator 1A),3,-0.258,33.8,28.2,inactive
GUCA1A (guanylate cyclase activator 1A),4,-0.658,86.6,54.9,inactive
IRF2BP2 (interferon regulatory factor 2 binding protein 2),1,-0.14,103,93.6,inactive
IRF2BP2 (interferon regulatory factor 2 binding protein 2),2,-0.675,93.7,58.7,inactive
IRF2BP2 (interferon regulatory factor 2 binding protein 2),3,-0.274,90.6,74.9,inactive

The list goes on; the last 2 above are carried over.
gene,reagent,log2 vehicle/camptothecin viability,viability with camptothecin (% of control),viability without drug (% of control),outcome
IRF2BP2 (interferon regulatory factor 2 binding protein 2),2,-0.675,93.7,58.7,inactive
IRF2BP2 (interferon regulatory factor 2 binding protein 2),3,-0.274,90.6,74.9,inactive
NOP53 (NOP53 ribosome biogenesis factor),1,-0.571,85.3,57.4,inactive
NOP53 (NOP53 ribosome biogenesis factor),2,-0.412,78.2,58.8,inactive
NOP53 (NOP53 ribosome biogenesis factor),3,-0.473,90.1,64.9,inactive
SRMS,1,-0.249,81.2,68.3,inactive
SRMS,2,0.928,25.9,49.2,inactive
SRMS,3,-0.461,66.4,48.3,inactive
SRMS,4,-0.462,81.6,59.2,inactive
POFUT1 (protein O-fucosyltransferase 1),1,-0.203,112,97.7,inactive
POFUT1 (protein O-fucosyltransferase 1),2,-0.165,119,106,inactive
POFUT1 (protein O-fucosyltransferase 1),3,-0.519,61.9,43.2,inactive
POFUT1 (protein O-fucosyltransferase 1),4,-0.153,47.8,43,inactive
SSTR3 (somatostatin receptor 3),1,0.255,34.3,40.9,inactive
SSTR3 (somatostatin receptor 3),2,-0.738,62.8,37.6,inactive
SSTR3 (somatostatin receptor 3),3,-0.387,68.7,52.6,inactive
SSTR3 (somatostatin receptor 3),4,-0.265,85.1,70.8,inactive
CYTH2 (cytohesin 2),1,-0.17,58,51.6,inactive
CYTH2 (cytohesin 2),2,0.00589,88.6,88.9,inactive
CYTH2 (cytohesin 2),3,0.64,26.1,40.7,inactive
CX3CL1 (C-X3-C motif chemokine ligand 1),1,-0.369,21.8,16.9,inactive
CX3CL1 (C-X3-C motif chemokine ligand 1),2,0.0295,88.5,90.4,inactive
CX3CL1 (C-X3-C motif chemokine ligand 1),3,0.419,47.5,63.5,inactive
GK (glycerol kinase),1,-0.05,91.4,88.3,inactive
GK (glycerol kinase),2,-0.31,98.7,79.7,inactive
GK (glycerol kinase),3,-0.226,48.3,41.3,inactive
GK (glycerol kinase),4,-0.0388,74.4,72.4,inactive
